Reference: paper PMC10163288
Some of the results follow.

B1: il2ra_site1_2b5i_normal_mot_HHH_b1_08426_af2_000000046_0001_39_52_H_._HHH_b1_04601_af2_0001_0000400021_0000001_0 (protein)
chain: SSSSDAAELADEYFHEASELFRRGNPEEARKLLEELEKLLKELNDERHLEDVERFLELLRNSSSS
B2: il2ra_site2_3nfp_normal_mot_HHH_b2_02747_af2_000000180_0001_18_35_H_._0ecac647df5eb0af5a9a32b1f4cfbb8e_0001_0001_0000400044_0000001_0 (protein)
chain: SLRRLFNEAYEEGDPELFMLVQLARDLLEQGIPPEEVEEIVERRAELEGIPPEVVERVREAIREH
B3: il2ra_site1_3nfp_normal_mot_HHH_b2_00809_af2_000000121_0001_23_40_H_._HHH_b1_02144_0001_0000100003_0000001_0_af2pred_0001_af2pred (protein)
chain: SSSSDREERAEEIFEEIQKAIEEGDQELLKKLLRLLFEFARKFEDPYAKELAREIIRLLGSSSSS
B4: il2ra_site2_2erj_normal_mot_HHH_b2_02727_000000149_0001_42_55_H_._HHH_b1_02740_0001_0000500026_0000001_0_af2pred_0001_af2pred (protein)
chain: SSSSDESELLVLAAENAAKIAEEEGDPEEAENLLRVVLELLEELGDEEAVERIRKLLEELSSSSS
B5: il2ra_site2_3nfp_sap_15_mot_HHH_b1_00660_af2_000000199_0001_40_57_H_._HHH_b1_03595_0001_0000100006_0000001_0_0001 (protein)
chain: SSSSDKSEEYLEAALALLRRALEEGDEEAIEKLARMLQMAAEDQGNPELVEEVRKLVEEFLSSSS
B6: il2ra_site1_3nfp_sap_11_mot_40ac32ce855e0fd9c7bcc7eb247393e9_0001_000000113_0001_1_14_H_._HHH_b2_01948_af2_0001_0000100007_0000001_0_0001 (protein)
chain: SSDQFFEELVRRVEELAEEKNDEEVRELAERARRLFREAEENQDSEKADEAIRIVARLMNEVQSS
B7: il2ra_site2_2erj_normal_mot_HHH_b2_01353_af2_000000049_0001_23_39_H_._HHH_b2_08022_af2_0001_0000500015_0000001_0 (protein)
chain: SSSDEEEQVERLIEEAEKLLEEGNPEEALEVLRRAAELAFRLNNHELFAEIAELTEAIARASSSS
B8: il2ra_site1_2b5i_normal_mot_HHH_b2_02581_000000027_0001_1_15_H_._HHH_b1_04616_0001_0000300020_0000001_0_af2pred_dldesign_0_af2pred (protein)
chain: SSSSSREFRRLLLEVERLLKELKKLGHEEEYDKVFELAEEALESRDPSLLREAVALARRILSSSS
B9: il2ra_site2_2erj_sap_40_mot_c2bf78bdce995293a161f7082e24b401_0001_000000177_0001_37_51_H_._aad918059751cfb3ae4f7fa8c0860a5b_0001_1_0001_0000100002_0000001_0_000 … (protein)
chain: SSSDLEEEVKELLERAEELLKEGNPEEAEEVLREAAEIVFRLGNFELFAAVARLLEEIAKRESSS
B10: il2ra_site1_2b5i_normal_mot_HHH_b2_04910_000000118_0001_1_19_H_._HHH_b1_07011_0001_0000300017_0000001_0_af2pred_dldesign_0_af2pred (protein)
chain: SSSSSPEGKKIRELIKEAEALKKAGKEEEAKKKLEEALELAKKLGSKLKVRFIESCLKLVSSSSS
B11: il2ra_site1_2b5i_sap_19_mot_HHH_b2_06557_000000199_0001_42_56_H_._HHH_b1_01408_af2_0001_0000200019_0000001_0_0001_af2pred_dldesign_0_af2pred (protein)
chain: SSSSSSLKKEALRLFEEANAAFQAGDEARARALLEELLEVATKAKCPTLLRIAQSALDEESSSSS
B12: il2ra_site1_2b5i_normal_mot_HHH_b1_01240_af2_000000288_0001_42_55_H_._HHH_b1_00339_0001_0000400024_0000001_0_af2pred_dldesign_0_af2pred (protein)
chain: SSSSDAAEAFADDAFRRALELHRQGRREEARRLLEEARAALEAQGKTDIVAQLDRLLARLSSSSS
B13: il2ra_site1_1z92_normal_mot_c9a8daa1dfea21d1414aecde54be4f54_0001_1_af2_000000024_0001_32_46_H_._84744eca03b61d784461fbba3329deeb_0001_af2_0001_0000300026_00000 … (protein)
chain: SLEEELERRLEELGVPPELIRAAKKDVEQALKLGIPPEDVLKAIARIAEDNGDPELKEAAELLLK
B14: il2ra_site2_2erj_normal_mot_HHH_b1_02968_000000142_0001_22_39_H_._HHH_b2_01127_af2_0001_0000400024_0000001_0 (protein)
chain: SSSSSDTEEEVREILEEAEEAYEKGDLERVYELAVEALHRASENRDEEAQRLVEEVVEKLSSSSS
B15: il2ra_site1_2b5i_normal_mot_HHH_b1_08504_af2_000000158_0001_42_54_H_._HHH_b2_03108_af2_0001_0000100009_0000001_0_af2pred_0001_af2pred_1 (protein)
chain: SSSSSEEWEEVEELYIEASRLFSNGNPEEAEKLLERALKIAEELGDELAVKQIEHMLKNVSSSSS
B16: il2ra_site1_3nfp_sap_22_mot_cc4219192d8ccd35c40e7b68f9a57604_0001_af2_000000124_0001_16_32_H_._HHH_b1_05637_0001_0000200014_0000001_0_0001_af2pred_0001_af2pred_ … (protein)
chain: SSSSSDLEEEVEELLEEAKKVEDPREAQEIFEEAKRLAEEANDPELRELIEEVLKRIAQSSSSSS
B17: il2ra_site2_3nfp_sap_15_mot_HHH_b2_05037_000000121_0001_41_55_H_._5124ce81285e2c7c1af0e00702a809c6_0001_af2_0001_0000100001_0000001_0_0001_af2pred_0001_af2pred (protein)
chain: SSSSSDIEERVEELLEEAKHIEDPFERFAVLADAAELAVRNGDEELEREVLEVALELRDKSSSSS
B18: il2ra_site1_2b5i_sap_13_mot_add8a691351788dd45ba4deda1838316_0001_1_af2_000000055_0001_17_32_H_._HEEHE_1324_af2_0001_0000600016_0000001_0_0001_af2pred_0001_af2p … (protein)
chain: SSSSDEDERVAELFREASELFRRGNPEEARKVLEEARELAEEAGDPVLLRDVEFMLEWLESSSSS
B19: il2ra_site2_2erj_normal_mot_HHH_b1_00216_000000142_0001_43_57_H_._HHH_b1_07996_0001_0000300009_0000001_0_af2pred_0001_af2pred (protein)
chain: SSSSTREEEEARLALLKVRLAIEEGNPERARRSIELAEKRVEELGDEEVLEQLERLLRELSSSSS

Biological target: il2ra, P01589
Assay: yeast display titration

Apparent Kd, inactive:
B1 no binding seen
B2 no binding seen
B3 no binding seen
B4 no binding seen
B5 no binding seen
B6 no binding seen
B7 no binding seen
B8 no binding seen
B9 no binding seen
B10 no binding seen
B11 no binding seen
B12 no binding seen
B13 no binding seen
B14 no binding seen
B15 no binding seen
B16 no binding seen
B17 no binding seen
B18 no binding seen
B19 no binding seen

For convenience, part of the list above.
Apparent Kd, inactive:
B11 no binding seen
B12 no binding seen
